From patent US5707803

Amino acid sequences for entries named in this document (tags omitted). Residues count along the entry.
UniProt P42224, 2-750: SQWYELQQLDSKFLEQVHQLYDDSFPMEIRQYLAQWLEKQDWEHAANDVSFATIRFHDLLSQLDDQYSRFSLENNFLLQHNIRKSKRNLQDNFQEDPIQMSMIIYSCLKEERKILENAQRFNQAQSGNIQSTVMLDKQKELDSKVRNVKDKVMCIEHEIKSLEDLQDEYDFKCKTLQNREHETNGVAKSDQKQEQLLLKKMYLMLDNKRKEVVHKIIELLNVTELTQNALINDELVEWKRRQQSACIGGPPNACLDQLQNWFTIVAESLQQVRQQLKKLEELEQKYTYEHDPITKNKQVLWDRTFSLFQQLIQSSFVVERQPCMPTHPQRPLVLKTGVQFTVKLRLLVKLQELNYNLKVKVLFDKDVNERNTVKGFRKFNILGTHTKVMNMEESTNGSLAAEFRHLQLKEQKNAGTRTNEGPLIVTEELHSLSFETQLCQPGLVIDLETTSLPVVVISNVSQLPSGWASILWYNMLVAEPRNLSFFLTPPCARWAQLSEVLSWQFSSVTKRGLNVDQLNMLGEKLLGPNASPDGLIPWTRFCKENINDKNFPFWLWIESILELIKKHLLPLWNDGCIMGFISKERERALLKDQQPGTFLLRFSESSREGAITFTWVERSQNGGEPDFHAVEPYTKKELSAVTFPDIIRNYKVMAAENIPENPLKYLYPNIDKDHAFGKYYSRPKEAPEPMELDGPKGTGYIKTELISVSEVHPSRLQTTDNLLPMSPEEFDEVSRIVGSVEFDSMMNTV
UniProt P40763, 2-770: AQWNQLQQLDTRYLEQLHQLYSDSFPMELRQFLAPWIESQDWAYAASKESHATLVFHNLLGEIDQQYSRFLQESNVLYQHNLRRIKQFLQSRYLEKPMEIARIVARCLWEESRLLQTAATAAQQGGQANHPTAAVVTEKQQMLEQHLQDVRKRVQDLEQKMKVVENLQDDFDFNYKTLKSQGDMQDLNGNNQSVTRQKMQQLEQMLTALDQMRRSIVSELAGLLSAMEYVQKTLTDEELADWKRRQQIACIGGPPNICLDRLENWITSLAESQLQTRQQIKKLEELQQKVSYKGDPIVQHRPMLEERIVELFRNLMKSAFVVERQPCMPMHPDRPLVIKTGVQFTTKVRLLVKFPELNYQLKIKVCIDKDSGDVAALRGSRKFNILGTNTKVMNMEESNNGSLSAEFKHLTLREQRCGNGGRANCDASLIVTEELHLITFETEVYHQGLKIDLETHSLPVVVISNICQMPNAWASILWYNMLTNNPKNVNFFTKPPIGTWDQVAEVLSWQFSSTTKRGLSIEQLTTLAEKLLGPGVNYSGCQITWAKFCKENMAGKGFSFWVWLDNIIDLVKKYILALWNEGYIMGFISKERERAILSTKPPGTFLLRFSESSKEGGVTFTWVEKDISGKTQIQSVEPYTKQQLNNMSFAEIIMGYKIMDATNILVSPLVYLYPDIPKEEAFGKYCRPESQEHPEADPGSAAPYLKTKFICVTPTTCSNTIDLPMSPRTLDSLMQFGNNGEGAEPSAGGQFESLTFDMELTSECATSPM

Assays:
[1] = system: GM-CSF-activated GAS-binding complex (STAT5 presumed); experiment: competition with a labelled probe; conditions: protein in an extract, protein details: nuclear extract of GM-CSF-treated U937 cells, variant of Ly6E GAS element (WT)
[2] = target: STAT1alpha (IFN-gamma activated, p91 complex) (UniProt P42224); experiment: competition with a labelled probe; conditions: protein in an extract, protein details: nuclear extract of IFN-gamma-treated HepG2 cells, variant of Ly6E GAS element (WT)
[3] = target: STAT3 (IL-6 activated homodimer) (UniProt P40763); experiment: competition with a labelled probe; conditions: protein in an extract, protein details: nuclear extract of IL-6-treated HepG2 cells, variant of Ly6E GAS element (WT)
[4] = system: GM-CSF-activated GAS-binding complex (STAT5 presumed); experiment: EMSA; conditions: labelled probe; protein in an extract; protein details: nuclear extract of GM-CSF-treated U937 cells; label: 32P fill-in
[5] = target: STAT1alpha (IFN-gamma activated, p91 complex) (UniProt P42224); experiment: EMSA; conditions: labelled probe, HEPES pH 7.6, 80 mM NaCl, room temperature; protein in an extract; protein details: nuclear extract of IFN-gamma-treated HepG2 cells; label: 32P fill-in
[6] = target: STAT3 (IL-6 activated homodimer) (UniProt P40763); experiment: EMSA; conditions: labelled probe, complex B; protein in an extract; protein details: nuclear extract of IL-6-treated HepG2 cells; label: 32P fill-in

GATCATATTCCCGTAAGTG / GATCCACTTACGGGAATAT [7C]
binding result ([1]; selective for STAT1/STAT3): no binding
binding result ([2]; binds better than WT): binds
binding result ([3]; binds better than WT): binds

GATCATATTCCTATAAGTG / GATCCACTTATAGGAATAT [8A]
binding result ([2]; score 4 or 5, preferential for STAT1alpha over STAT3): binds
binding result ([3]; binds STAT1alpha preferentially over STAT3): binds more weakly

GATCATATTCCTGTAAGTG / GATCCACTTACAGGAATAT [Ly6E GAS element (WT)]
binding result [4]: binds
binding result [5]: binds
binding result [6]: binds

TATTCCTGGAAGTG (double strand) [9G]
binding result ([1]; tighter than WT): binds
binding result ([2]; tighter than WT): binds
binding result ([3]; tighter than WT): binds

TATTCCTTTAAGTG (double strand) [8T]
binding result ([1]; complex unaffected): no binding
binding result ([3]; complex B unaffected): no binding

TATTCTTGTAAGTG (double strand) [6T]
binding result ([2]; binds STATs less well than 7C): binds more weakly
binding result ([3]; binds STATs less well than 7C): binds more weakly

TCTTCCTGTAAGTG (double strand) [2C]
binding result ([2]; binds STATs less well than 7C): binds more weakly
binding result ([3]; binds STATs less well than 7C): binds more weakly

Results from cells or extracts need not show a direct contact. For some assays here: No signal at the amounts used counts as a negative. For some assays here: Weaker means in comparison with the reference protein, sequence or condition of that experiment. For some assays here: Construct, isoform or probe ends are uncertain for at least one entry.
